Data taken from article doi:10.1101/2020.12.07.413385.
Like-named read-outs stand apart in the source and are kept apart here. No constants are given. Whether binding was seen depends on the method and setting. Binding seen in cells or lysates may run through a third protein. Here binding means that the protein was enriched with, or labelled near, the bait; the list need not be complete.

Amino acid sequences for entries named in this document (tags omitted).
UniProt Q9BVS4: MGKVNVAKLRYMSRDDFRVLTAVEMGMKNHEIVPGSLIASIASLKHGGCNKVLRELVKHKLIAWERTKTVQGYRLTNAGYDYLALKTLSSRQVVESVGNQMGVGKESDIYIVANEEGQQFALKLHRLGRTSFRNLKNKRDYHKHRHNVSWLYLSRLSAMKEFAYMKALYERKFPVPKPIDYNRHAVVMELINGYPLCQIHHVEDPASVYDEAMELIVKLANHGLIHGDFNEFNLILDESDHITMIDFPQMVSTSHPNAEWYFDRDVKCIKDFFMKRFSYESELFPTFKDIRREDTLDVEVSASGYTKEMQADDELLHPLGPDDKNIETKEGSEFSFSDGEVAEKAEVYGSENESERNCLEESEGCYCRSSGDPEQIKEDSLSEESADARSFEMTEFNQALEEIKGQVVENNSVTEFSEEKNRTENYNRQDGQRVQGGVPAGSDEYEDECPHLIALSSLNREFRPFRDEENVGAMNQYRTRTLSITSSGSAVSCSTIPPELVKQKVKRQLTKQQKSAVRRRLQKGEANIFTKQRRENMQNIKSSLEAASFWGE
UniProt Q99700: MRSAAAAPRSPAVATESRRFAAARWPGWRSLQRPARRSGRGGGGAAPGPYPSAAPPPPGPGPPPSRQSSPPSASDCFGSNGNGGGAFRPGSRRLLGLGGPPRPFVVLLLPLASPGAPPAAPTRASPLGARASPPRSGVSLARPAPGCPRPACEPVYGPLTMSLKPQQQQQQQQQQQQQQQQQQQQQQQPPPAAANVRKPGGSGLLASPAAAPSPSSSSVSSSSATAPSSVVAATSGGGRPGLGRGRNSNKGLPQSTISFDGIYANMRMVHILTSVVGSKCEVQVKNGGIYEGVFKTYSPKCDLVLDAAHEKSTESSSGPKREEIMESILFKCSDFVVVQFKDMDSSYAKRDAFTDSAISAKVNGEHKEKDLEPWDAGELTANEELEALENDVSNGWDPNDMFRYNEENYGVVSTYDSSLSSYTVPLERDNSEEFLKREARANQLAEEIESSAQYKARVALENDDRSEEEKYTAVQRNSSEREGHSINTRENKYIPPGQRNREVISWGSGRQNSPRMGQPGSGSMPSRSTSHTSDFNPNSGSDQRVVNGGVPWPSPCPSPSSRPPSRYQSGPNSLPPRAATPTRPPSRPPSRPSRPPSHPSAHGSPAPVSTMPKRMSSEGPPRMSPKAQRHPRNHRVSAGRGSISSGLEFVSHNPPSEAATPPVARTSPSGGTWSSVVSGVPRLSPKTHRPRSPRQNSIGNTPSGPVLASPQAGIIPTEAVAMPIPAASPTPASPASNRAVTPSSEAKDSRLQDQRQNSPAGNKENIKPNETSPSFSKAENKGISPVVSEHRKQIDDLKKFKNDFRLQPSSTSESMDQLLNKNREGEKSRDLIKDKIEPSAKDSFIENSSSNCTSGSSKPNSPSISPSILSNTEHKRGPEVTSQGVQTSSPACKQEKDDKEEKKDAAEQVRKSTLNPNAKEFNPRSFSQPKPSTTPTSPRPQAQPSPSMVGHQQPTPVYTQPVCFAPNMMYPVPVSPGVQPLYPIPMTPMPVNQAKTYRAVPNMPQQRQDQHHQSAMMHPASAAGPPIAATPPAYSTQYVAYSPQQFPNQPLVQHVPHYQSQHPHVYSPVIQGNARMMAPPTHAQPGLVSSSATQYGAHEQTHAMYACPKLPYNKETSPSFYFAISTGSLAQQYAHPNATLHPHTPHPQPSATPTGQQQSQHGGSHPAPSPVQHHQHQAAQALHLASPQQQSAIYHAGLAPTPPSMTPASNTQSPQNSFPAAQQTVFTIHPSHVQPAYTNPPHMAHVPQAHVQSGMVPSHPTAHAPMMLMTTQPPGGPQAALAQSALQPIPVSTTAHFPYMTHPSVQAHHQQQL
UniProt Q13283: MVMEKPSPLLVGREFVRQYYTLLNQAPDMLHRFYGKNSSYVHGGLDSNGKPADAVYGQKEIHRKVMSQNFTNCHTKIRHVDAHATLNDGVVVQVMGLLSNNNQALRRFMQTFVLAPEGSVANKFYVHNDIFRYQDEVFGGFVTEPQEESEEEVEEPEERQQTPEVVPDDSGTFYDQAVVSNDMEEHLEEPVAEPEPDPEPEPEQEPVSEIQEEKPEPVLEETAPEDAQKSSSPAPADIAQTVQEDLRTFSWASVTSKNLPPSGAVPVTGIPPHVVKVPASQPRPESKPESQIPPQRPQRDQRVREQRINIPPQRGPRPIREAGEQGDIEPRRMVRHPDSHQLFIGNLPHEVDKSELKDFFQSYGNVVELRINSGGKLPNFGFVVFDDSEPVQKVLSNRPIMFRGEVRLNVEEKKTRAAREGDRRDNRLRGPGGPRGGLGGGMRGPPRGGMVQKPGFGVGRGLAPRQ
UniProt O00425: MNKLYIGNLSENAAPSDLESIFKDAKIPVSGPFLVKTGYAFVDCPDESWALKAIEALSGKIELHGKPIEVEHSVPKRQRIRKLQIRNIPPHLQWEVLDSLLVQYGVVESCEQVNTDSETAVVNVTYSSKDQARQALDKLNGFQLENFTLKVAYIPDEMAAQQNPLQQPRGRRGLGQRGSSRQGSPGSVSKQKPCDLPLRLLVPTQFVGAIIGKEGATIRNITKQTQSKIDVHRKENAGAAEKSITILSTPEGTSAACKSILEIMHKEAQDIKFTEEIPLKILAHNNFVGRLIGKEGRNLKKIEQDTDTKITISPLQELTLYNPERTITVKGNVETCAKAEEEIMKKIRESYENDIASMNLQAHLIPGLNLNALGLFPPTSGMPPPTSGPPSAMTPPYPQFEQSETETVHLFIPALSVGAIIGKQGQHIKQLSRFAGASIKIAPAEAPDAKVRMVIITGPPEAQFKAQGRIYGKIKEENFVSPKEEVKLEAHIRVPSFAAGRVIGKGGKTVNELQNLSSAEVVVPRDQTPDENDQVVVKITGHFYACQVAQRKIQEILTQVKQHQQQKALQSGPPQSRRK
UniProt Q9NRX1: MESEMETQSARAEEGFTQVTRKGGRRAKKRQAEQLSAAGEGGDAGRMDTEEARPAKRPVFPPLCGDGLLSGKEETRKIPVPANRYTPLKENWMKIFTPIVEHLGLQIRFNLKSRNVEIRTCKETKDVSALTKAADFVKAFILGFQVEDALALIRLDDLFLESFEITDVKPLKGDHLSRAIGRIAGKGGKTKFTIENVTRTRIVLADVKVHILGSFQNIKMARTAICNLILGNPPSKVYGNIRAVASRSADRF

Experiments:
Experiment in all cases: affinity purification with mass spectrometry
[1] = biological target: RIOK2 (right open reading frame kinase 2), endogenous (human (endogenous in U87MG-EGFRvIII, GBM301, GBM39, hNPCs)) (UniProt Q9BVS4)
[2] = biological target: FLAG-tagged wild-type RIOK2 (RIOK2^WT-FLAG) (human) (UniProt Q9BVS4)
[3] = biological target: RIOK2 (right open reading frame kinase 2), endogenous (human (endogenous in U87MG-EGFRvIII, GBM301, GBM39, hNPCs)) (UniProt Q9BVS4); remark: listed apart in the source
[4] = biological target: FLAG-tagged wild-type RIOK2 (RIOK2^WT-FLAG) (human) (UniProt Q9BVS4); remark: listed apart in the source

Molecule	binding [1]	binding [2]	binding [3]	binding [4]
ATXN2 (from UniProt Q99700 1-1313)	binds	–	–	–
G3BP1 (from UniProt Q13283 1-466)	binds	binds	–	–
IMP3 (IGF2BP3), endogenous (from UniProt O00425 1-579)	binds	binds	–	–
PNO1 (from UniProt Q9NRX1 1-252)	binds	binds	–	–
TSR1 (protein, UniProt Q2NL82 1-804) MAAHRPGPLKQQNKAHKGGRHRGRGSAQRDGKGRLALKTLSKKVRKELSRVDQRHRASQLRKQKKEAVLAEKRQLGGKDGPPHQVLVVPLHSRISLPEAMQLLQDRDTGTVHLNELGNTQNFMLLCPRLKHRWFFTSARPGDLHVVLDMAKVADTILFLLDPLEGWDSTGDYCLSCLFAQGLPTYTLAVQGISGLPLKKQIDTRKKLSKAVEKRFPHDKLLLLDTQQEAGMLLRQLANQKQQHLAFRDRRAYLFAHAVDFVPSEENNLVGTLKISGYVRGQTLNVNRLLHIVGYGDFQMKQIDAPGDPFPLNPRGIKPQKDPDMAMEICATDAVDDMEEGLKVLMKADPGRQESLQAEVIPDPMEGEQTWPTEEELSEAKDFLKESSKVVKKVPKGTSSYQAEWILDGGSQSGGEGDEYEYDDMEHEDFMEEESQDESSEEEEEYETMTIGESVHDDLYDKKVDEEAEAKMLEKYKQERLEEMFPDEVDTPRDVAARIRFQKYRGLKSFRTSPWDPKENLPQDYARIFQFQNFTNTRKSIFKEVEEKEVEGAEVGWYVTLHVSEVPVSVVECFRQGTPLIAFSLLPHEQKMSVLNMVVRRDPGNTEPVKAKEELIFHCGFRRFRASPLFSQHTAADKHKLQRFLTADMALVATVYAPITFPPASVLLFKQKSNGMHSLIATGHLMSVDPDRMVIKRVVLSGHPFKIFTKMAVVRYMFFNREDVLWFKPVELRTKWGRRGHIKEPLGTHGHMKCSFDGKLKSQDTVLMNLYKRVFPKWTYDPYVPEPVPWLKSEISSTVPQGGME	–	–	binds	–
NOB1 (protein, UniProt Q9ULX3 1-412) MAPVEHVVADAGAFLRHAALQDIGKNIYTIREVVTEIRDKATRRRLAVLPYELRFKEPLPEYVRLVTEFSKKTGDYPSLSATDIQVLALTYQLEAEFVGVSHLKQEPQKVKVSSSIQHPETPLHISGFHLPYKPKPPQETEKGHSACEPENLEFSSFMFWRNPLPNIDHELQELLIDRGEDVPSEEEEEEENGFEDRKDDSDDDGGGWITPSNIKQIQQELEQCDVPEDVRVGCLTTDFAMQNVLLQMGLHVLAVNGMLIREARSYILRCHGCFKTTSDMSRVFCSHCGNKTLKKVSVTVSDDGTLHMHFSRNPKVLNPRGLRYSLPTPKGGKYAINPHLTEDQRFPQLRLSQKARQKTNVFAPDYIAGVSPFVENDISSRSATLQVRDSTLGAGRRRLNPNASRKKFVKKR	–	–	binds	binds
ATXN2L (protein, UniProt Q8WWM7 1-1075) MLKPQPLQQPSQPQQPPPTQQAVARRPPGGTSPPNGGLPGPLATSAAPPGPPAAASPCLGPVAAAGSGLRRGAEGILAPQPPPPQQHQERPGAAAIGSARGQSTGKGPPQSPVFEGVYNNSRMLHFLTAVVGSTCDVKVKNGTTYEGIFKTLSSKFELAVDAVHRKASEPAGGPRREDIVDTMVFKPSDVMLVHFRNVDFNYATKDKFTDSAIAMNSKVNGEHKEKVLQRWEGGDSNSDDYDLESDMSNGWDPNEMFKFNEENYGVKTTYDSSLSSYTVPLEKDNSEEFRQRELRAAQLAREIESSPQYRLRIAMENDDGRTEEEKHSAVQRQGSGRESPSLASREGKYIPLPQRVREGPRGGVRCSSSRGGRPGLSSLPPRGPHHLDNSSPGPGSEARGINGGPSRMSPKAQRPLRGAKTLSSPSNRPSGETSVPPPPAVGRMYPPRSPKSAAPAPISASCPEPPIGSAVPTSSASIPVTSSVSDPGVGSISPASPKISLAPTDVKELSTKEPGRTLEPQELARIAGKVPGLQNEQKRFQLEELRKFGAQFKLQPSSSPENSLDPFPPRILKEEPKGKEKEVDGLLTSEPMGSPVSSKTESVSDKEDKPPLAPSGGTEGPEQPPPPCPSQTGSPPVGLIKGEDKDEGPVAEQVKKSTLNPNAKEFNPTKPLLSVNKSTSTPTSPGPRTHSTPSIPVLTAGQSGLYSPQYISYIPQIHMGPAVQAPQMYPYPVSNSVPGQQGKYRGAKGSLPPQRSDQHQPASAPPMMQAAAAAGPPLVAATPYSSYIPYNPQQFPGQPAMMQPMAHYPSQPVFAPMLQSNPRMLTSGSHPQAIVSSSTPQYPSAEQPTPQALYATVHQSYPHHATQLHAHQPQPATTPTGSQPQSQHAAPSPVQHQAGQAPHLGSGQPQQNLYHPGALTGTPPSLPPGPSAQSPQSSFPQPAAVYAIHHQQLPHGFTNMAHVTQAHVQTGITAAPPPHPGAPHPPQVMLLHPPQSHGGPPQGAVPQSGVPALSASTPSPYPYIGHPQGEQPGQAPGFPGGADDRIREFSLAGGIWHGRAEGLQVGQDARVLGGE	–	–	binds	binds
ILF3 (protein, UniProt Q12906 1-894) MRPMRIFVNDDRHVMAKHSSVYPTQEELEAVQNMVSHTERALKAVSDWIDEQEKGSSEQAESDNMDVPPEDDSKEGAGEQKTEHMTRTLRGVMRVGLVAKGLLLKGDLDLELVLLCKEKPTTALLDKVADNLAIQLAAVTEDKYEILQSVDDAAIVIKNTKEPPLSLTIHLTSPVVREEMEKVLAGETLSVNDPPDVLDRQKCLAALASLRHAKWFQARANGLKSCVIVIRVLRDLCTRVPTWGPLRGWPLELLCEKSIGTANRPMGAGEALRRVLECLASGIVMPDGSGIYDPCEKEATDAIGHLDRQQREDITQSAQHALRLAAFGQLHKVLGMDPLPSKMPKKPKNENPVDYTVQIPPSTTYAITPMKRPMEEDGEEKSPSKKKKKIQKKEEKAEPPQAMNALMRLNQLKPGLQYKLVSQTGPVHAPIFTMSVEVDGNSFEASGPSKKTAKLHVAVKVLQDMGLPTGAEGRDSSKGEDSAEETEAKPAVVAPAPVVEAVSTPSAAFPSDATAEQGPILTKHGKNPVMELNEKRRGLKYELISETGGSHDKRFVMEVEVDGQKFQGAGSNKKVAKAYAALAALEKLFPDTPLALDANKKKRAPVPVRGGPKFAAKPHNPGFGMGGPMHNEVPPPPNLRGRGRGGSIRGRGRGRGFGGANHGGYMNAGAGYGSYGYGGNSATAGYSQFYSNGGHSGNASGGGGGGGGGSSGYGSYYQGDNYNSPVPPKHAGKKQPHGGQQKPSYGSGYQSHQGQQQSYNQSPYSNYGPPQGKQKGYNHGQGSYSYSNSYNSPGGGGGSDYNYESKFNYSGSGGRSGGNSYGSGGASYNPGSHGGYGGGSGGGSSYQGKQGGYSQSNYNSPGSGQNYSGPPSSYQSSQGGYGRNADHSMNYQYR	–	–	binds	binds
